According to PMC7819943, “Rice protein-binding microarrays: a tool to detect cis-acting elements near promoter regions in rice”:
Some of the results follow.

By UniProt entry, the sequences of proteins in these tests, tags left out.
UniProt Q0JBA9, entry or part of it: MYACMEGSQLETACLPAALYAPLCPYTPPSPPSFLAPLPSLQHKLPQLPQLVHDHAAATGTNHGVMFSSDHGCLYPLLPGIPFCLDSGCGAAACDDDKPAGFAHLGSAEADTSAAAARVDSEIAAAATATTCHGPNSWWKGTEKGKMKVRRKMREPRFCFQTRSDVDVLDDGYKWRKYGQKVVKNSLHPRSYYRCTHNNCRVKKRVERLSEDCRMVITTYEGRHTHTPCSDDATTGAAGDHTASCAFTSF

Biological target: OsWRKY34 (Oryza sativa, UniProt Q0JBA9 1-250)
Assay: protein-binding microarray (RPBM); PBS, 2% BSA, 51.3 ng/ul salmon testes DNA, 50 uM zinc acetate, 200 nM TF, 25 C, 1 h; high values mean tight binding
Conditions: protein: recombinant; tags: N-terminal polyhistidine and DsRed monomer fusion (pET32a); label: CyDye5-dUTP incorporated in the synthesized complementary strand; 3' TTTTT single-stranded linker to array surface; dsDNA, one strand shown
Summary of the method: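 Transcription factors were each fused at the N-terminus to a polyhistidine tag plus DsRed and expressed in E. coli BL21-CodonPlus before Ni–NTA purification. Binding to a double-stranded custom Agilent array was carried out with 200 nM protein at 25 °C for 1 h in PBS, 2% BSA, salmon testes DNA and 50 µM zinc acetate. The binding signal is per-feature fluorescence intensity, in arbitrary units, on an Axon 4000B scanner.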

Sequence | binding signal
CGTCACGTACACAAGTATATATTATTCGAGCCATTTTATTCGGAGTCACCTAGTGCAG | 8030 fluorescence intensity (a.u.)
GATCAACTATTGCACATTAACTGCCGCCTCTAACATTTAACGGAGTCACCTAGTGCAG | 8090 fluorescence intensity (a.u.)
AGTTATATTACCCACACATCGCCACGCATTGCCGGCCATGCGGAGTCACCTAGTGCAG | 8210 fluorescence intensity (a.u.)
CATTACAACTTTAAACGTTATTCGGGGCATTATATACGTCCGGAGTCACCTAGTGCAG | 9590 fluorescence intensity (a.u.)
ACCTAATTAATCCGTCATTAACAAATGTTTACCGTAACACCGGAGTCACCTAGTGCAG | 8660 fluorescence intensity (a.u.)
GCAATTAGGCTAGTATCTGAGGCAACGCCATCCTCACAATCGGAGTCACCTAGTGCAG | 8180 fluorescence intensity (a.u.)
ACACAGCCTGGCCCGTCACATGCAGCGCGCGGCACCCGCGCGGAGTCACCTAGTGCAG | 10400 fluorescence intensity (a.u.)
TATTATTGTTCTGTATCCGGTTCCACGATCCGCCAATCCGCGGAGTCACCTAGTGCAG | 11200 fluorescence intensity (a.u.)
GCCTCCTCTCGAGTTCACCTGCCACCCGCCCGCCGCCGCCCGGAGTCACCTAGTGCAG | 12100 fluorescence intensity (a.u.)
CAAACGCCTTTTTTTTTTCTTTTCTTTTTTTTTTCGCGTCCGGAGTCACCTAGTGCAG | 9200 fluorescence intensity (a.u.)
ACGGTCAAACATTTTTAAAAAAGTCAACGGCGTCAAATATCGGAGTCACCTAGTGCAG | 12000 fluorescence intensity (a.u.)
CCGGCAAATCCTTAATTAATTAATTATGCATCATCTATTTCGGAGTCACCTAGTGCAG | 9170 fluorescence intensity (a.u.)
GTGGTGGTGCGCGGCGGCGGCGGCGGGGAGGGGTGTGTGTCGGAGTCACCTAGTGCAG | 24500 fluorescence intensity (a.u.)
ACCCCGCGCTTCACTTCGCTTCACTTCGGCTTCGCTTCCACGGAGTCACCTAGTGCAG | 8460 fluorescence intensity (a.u.)
AAGTTCTTGCCGGCCCAACTCAACACCCGCTGCTCGATCCCGGAGTCACCTAGTGCAG | 8680 fluorescence intensity (a.u.)
GCTTCTTTGATTGTTGAGCGGGTTGTGTTCTTCATCACTTCGGAGTCACCTAGTGCAG | 9990 fluorescence intensity (a.u.)
CCAGTGATCCCACCTATGGTCTTTTGCCTTCAGTACCTGACGGAGTCACCTAGTGCAG | 10400 fluorescence intensity (a.u.)
AATTCCTGGCTACGCCACTGCTGCTCTATATATCAAGCCGCGGAGTCACCTAGTGCAG | 8080 fluorescence intensity (a.u.)
GGGGTGATCTAACTTATAAGTAAATGTTATAGCGTGAAATCGGAGTCACCTAGTGCAG | 8770 fluorescence intensity (a.u.)
GCGTAGACCATTTCTTCAAACCTCAATACATATTAAACATCGGAGTCACCTAGTGCAG | 8860 fluorescence intensity (a.u.)
TTGTTCACTTTGCTACCATTTTCAACCTTATTAGTTTTTGCGGAGTCACCTAGTGCAG | 8380 fluorescence intensity (a.u.)

Sequence | binding signal
ACATTTGACCGTCCTATTTTTTTTATATCATCGGGCGTCCCGGAGTCACCTAGTGCAG | 10900 fluorescence intensity (a.u.)
GTCGCCGACCACCTCTGGGACTTTTACCTTGGCGGCCGCTCGGAGTCACCTAGTGCAG | 9350 fluorescence intensity (a.u.)
TAGAATGGCTGGTTCACAGCTCCTCCACCTCGTTTTTTCCCGGAGTCACCTAGTGCAG | 8840 fluorescence intensity (a.u.)
AAGGTCGTTGACTTTTTATTCGTCCTCGTCTAATTTCTCCCGGAGTCACCTAGTGCAG | 33600 fluorescence intensity (a.u.)
CAGGGCCCTCTTGCCTTTCGATCGACACGCATCGGTCTCTCGGAGTCACCTAGTGCAG | 9030 fluorescence intensity (a.u.)
AGCATTCAGATTTTTCAGTATGATATATCACTACCTAGCTCGGAGTCACCTAGTGCAG | 8060 fluorescence intensity (a.u.)
GAATTCATCGTCTTCTCCTTTTGGTACTTAGCTGTTAATACGGAGTCACCTAGTGCAG | 8980 fluorescence intensity (a.u.)
AGAGCTGCTTGCGCACTAAAACTGGGGCATCTCTATCAACCGGAGTCACCTAGTGCAG | 8380 fluorescence intensity (a.u.)
GGTGGCCATTTCTATCCAGGTTTCTCCATCACGCCGCCGCCGGAGTCACCTAGTGCAG | 12000 fluorescence intensity (a.u.)
AGGTCATCATTTTGTGTTTCACACCCAGCGCCTCAATTTGCGGAGTCACCTAGTGCAG | 11800 fluorescence intensity (a.u.)
ATGTATGACGCCGTTGACTTTTCGACCAACGTTTATTCGTCGGAGTCACCTAGTGCAG | 30200 fluorescence intensity (a.u.)
TTCTAACTTTTCCGTTATATCGTTCCAATTTCAATCAAACCGGAGTCACCTAGTGCAG | 9440 fluorescence intensity (a.u.)
GGGGTGGTGGCGGATGAGTCGAACATGGAAGGATCCGAGCCGGAGTCACCTAGTGCAG | 10800 fluorescence intensity (a.u.)
TACATCGTCCGTGTCTCGTGTTTCTTCCTGGCACGCGATCCGGAGTCACCTAGTGCAG | 8840 fluorescence intensity (a.u.)
TTTACCATCTACTACACGGTTTTTATTTCGTCATATATTCCGGAGTCACCTAGTGCAG | 13300 fluorescence intensity (a.u.)
TAGAGAATTTACCATCAAATTCATGTGCCTCAACTTTTTTCGGAGTCACCTAGTGCAG | 8700 fluorescence intensity (a.u.)
GTGGGGTGGTAAAAAAGAAAAACCGGGAGGAGAAGGCGGTCGGAGTCACCTAGTGCAG | 9880 fluorescence intensity (a.u.)
TCATCGTGCTCTTCATCACCTTCACCCATCCTGGCTTAGTCGGAGTCACCTAGTGCAG | 14000 fluorescence intensity (a.u.)
CACACACTTCCTTCCATCATTGTCACCTACTTTTTTAATACGGAGTCACCTAGTGCAG | 8280 fluorescence intensity (a.u.)
GAAAGAATCCTTTCATCCTTTTGTACTGTCTACCTACTGGCGGAGTCACCTAGTGCAG | 8610 fluorescence intensity (a.u.)
TCTTCCTGCCTGCCTACTCTCTCCTTGTTGTCCATGGCTCCGGAGTCACCTAGTGCAG | 8620 fluorescence intensity (a.u.)

Sequence | binding signal
AACAACTACTCAAGCCATTTCAAGTGCAACCATTCCTGTCCGGAGTCACCTAGTGCAG | 8050 fluorescence intensity (a.u.)
ATCTGCCACTGTGTGTTTGTAGCTACCTATAACATGTTATCGGAGTCACCTAGTGCAG | 9020 fluorescence intensity (a.u.)
GCGCCTCGAATCCCCGCCTGGTCGTCTCTCCCCTCTCCCTCGGAGTCACCTAGTGCAG | 8530 fluorescence intensity (a.u.)
ATTAGTTATTAAAAGTACTTTTATGTAGCATATGTGTTTTCGGAGTCACCTAGTGCAG | 10400 fluorescence intensity (a.u.)
CGTTCAAACAAACTATGTTTGTATCAGAGTTCACCTCTTCCGGAGTCACCTAGTGCAG | 8710 fluorescence intensity (a.u.)
TTGGGGTTTTTGTCGTAGAATCTCTCCTTCTCTTCATGATCGGAGTCACCTAGTGCAG | 9370 fluorescence intensity (a.u.)
TTGTCGGGGTCTGGTGGCGGTGGCAGGCAAGGTGCCAGTGCGGAGTCACCTAGTGCAG | 9000 fluorescence intensity (a.u.)
GTTGCACTCAAACGTGGTACCTACCTACCAAGTTGTTGTACGGAGTCACCTAGTGCAG | 8270 fluorescence intensity (a.u.)
AGTTCAACTGCGATCTGCTGCCTTTTCCTATTCGATCCCACGGAGTCACCTAGTGCAG | 8260 fluorescence intensity (a.u.)
CTTACTTGCGATTATCCAGGAGACTTGGCATTCGTATACTCGGAGTCACCTAGTGCAG | 8380 fluorescence intensity (a.u.)
CCAAGAGAGACCATCATCTGCTAGCTTAGAACTCCTATATCGGAGTCACCTAGTGCAG | 13700 fluorescence intensity (a.u.)
CCACCAGGCCGCCACTCCGAGTCCGACACGACCCATCATACGGAGTCACCTAGTGCAG | 9600 fluorescence intensity (a.u.)
TAATATATCTCCATTTGTCGACAACCCTCGTACGCGTCCGCGGAGTCACCTAGTGCAG | 8610 fluorescence intensity (a.u.)
GAATTGCACTTTAGACCATCTTTTATTACCTTAATTTTACCGGAGTCACCTAGTGCAG | 10800 fluorescence intensity (a.u.)
TCTTCTTTATCTCCTTCACTGAATTCTCATGCATACACATCGGAGTCACCTAGTGCAG | 8670 fluorescence intensity (a.u.)
TGCATATAATACTACGAGTCTAAACTTTTGACTGTCCTATCGGAGTCACCTAGTGCAG | 8030 fluorescence intensity (a.u.)
TCCTTGTTGCAGAGTGTATGTGCCTTCCAATTTTCCATATCGGAGTCACCTAGTGCAG | 10100 fluorescence intensity (a.u.)
TATAGGACAGAGGGAGGACCTCTTACCTCCGCGTTGTTGTCGGAGTCACCTAGTGCAG | 8120 fluorescence intensity (a.u.)
CCACGGCCGCCCACCTGTTCCTCGGTTGCCAATAGCACTCCGGAGTCACCTAGTGCAG | 11200 fluorescence intensity (a.u.)
GTGCCATCCTGATTTGTCCCTCCCTGTCGCCTCACTGTTTCGGAGTCACCTAGTGCAG | 10700 fluorescence intensity (a.u.)
ACAGCTTTTACTACTCCGACATTTTCCTCCACAATATACACGGAGTCACCTAGTGCAG | 8070 fluorescence intensity (a.u.)

A second format for part of the listing above:

| Sequence | binding signal |
| --- | --- |
| TAGAATGGCTGGTTCACAGCTCCTCCACCTCGTTTTTTCCCGGAGTCACCTAGTGCAG | 8840 fluorescence intensity (a.u.) |
| AAGGTCGTTGACTTTTTATTCGTCCTCGTCTAATTTCTCCCGGAGTCACCTAGTGCAG | 33600 fluorescence intensity (a.u.) |
| ATGTATGACGCCGTTGACTTTTCGACCAACGTTTATTCGTCGGAGTCACCTAGTGCAG | 30200 fluorescence intensity (a.u.) |
| ATTAGTTATTAAAAGTACTTTTATGTAGCATATGTGTTTTCGGAGTCACCTAGTGCAG | 10400 fluorescence intensity (a.u.) |
| CTTACTTGCGATTATCCAGGAGACTTGGCATTCGTATACTCGGAGTCACCTAGTGCAG | 8380 fluorescence intensity (a.u.) |
| TCCTTGTTGCAGAGTGTATGTGCCTTCCAATTTTCCATATCGGAGTCACCTAGTGCAG | 10100 fluorescence intensity (a.u.) |

Additional records

Sequence | binding signal
GCTGTGACATCCAAAATTTTACTTTTCCCCAACTAAACACCGGAGTCACCTAGTGCAG | 8230 fluorescence intensity (a.u.)
ACTAAATGCATTTTTTTTCTGAACTGCTGTTTTGTTGTATCGGAGTCACCTAGTGCAG | 9340 fluorescence intensity (a.u.)
CTAGCTAGCTCGCACCTTCTTCTTCGTGTTCGTTAAGCTTCGGAGTCACCTAGTGCAG | 9690 fluorescence intensity (a.u.)
TTACTGCTACCTCCACTTCATGTTATAAGTTGTTTTACCTCGGAGTCACCTAGTGCAG | 8580 fluorescence intensity (a.u.)
TTTACCTACAGATACTATTCCTCGTGACATTTTTACTTAGCGGAGTCACCTAGTGCAG | 9040 fluorescence intensity (a.u.)
GGGGTATAGAAGGGATCGGGTAAATTTCAGAGATATAAAACGGAGTCACCTAGTGCAG | 8860 fluorescence intensity (a.u.)
AAACTTGTATTCAACTGCGCTTTGGTTAGGTTAGGTAGTACGGAGTCACCTAGTGCAG | 9830 fluorescence intensity (a.u.)
TTTCCATTCAACCGGTGAGCCATTTGTCGATTTCTTGCAGCGGAGTCACCTAGTGCAG | 8960 fluorescence intensity (a.u.)
AAAGTTTGTTCGTCGCGGTCTTCTGGAGAGGATGGCTTTCCGGAGTCACCTAGTGCAG | 8380 fluorescence intensity (a.u.)
GTTTCCTACCAACGTTTGACTGTCCGTCTTATATAATTTTCGGAGTCACCTAGTGCAG | 9090 fluorescence intensity (a.u.)
GCTTTGCTCTCTACACCCACCGCCACCGACCCAACCACACCGGAGTCACCTAGTGCAG | 9830 fluorescence intensity (a.u.)
GGCGGCGGCGGAGGAGGAGGAGGGGAGGGGAGCACGAGCGCGGAGTCACCTAGTGCAG | 17400 fluorescence intensity (a.u.)
TTGGCGGTGGAGGCGGTGGTGGCTTTGGAGGAGACGGTGGCGGAGTCACCTAGTGCAG | 8650 fluorescence intensity (a.u.)
CCTCCGTTTCAAAATATTTGACACCGTTGACTTTTTAGTACGGAGTCACCTAGTGCAG | 14100 fluorescence intensity (a.u.)
TATTTGACGTCGTTGACTTTTTAAAACATGTTTGACCATTCGGAGTCACCTAGTGCAG | 30200 fluorescence intensity (a.u.)
AAAACTCCGTCCCCGTACAAACATGTTTTTTTTTTCTCGACGGAGTCACCTAGTGCAG | 12800 fluorescence intensity (a.u.)
GACCGGCATCACCTGCCCGGTCTAACCGGACCTGACAAAACGGAGTCACCTAGTGCAG | 8290 fluorescence intensity (a.u.)
TAGCTAGTTATTACGTATTCTTGTGTGGATTACGTTGACTCGGAGTCACCTAGTGCAG | 8680 fluorescence intensity (a.u.)
GAGTGTTTTTGTGAGGGCTTTTGGTCAGTTTGAGTGAACTCGGAGTCACCTAGTGCAG | 10700 fluorescence intensity (a.u.)
AGAACTATCATCGCCGTTAGGGTCATTTCCATCTTGCGTCCGGAGTCACCTAGTGCAG | 10200 fluorescence intensity (a.u.)
AGTCATTTTCTCTTGCTCATTGGCATTGGCAACTTTAACTCGGAGTCACCTAGTGCAG | 11100 fluorescence intensity (a.u.)
